The results in this text go back to the supplement of paper PMC4604168 (melanoma cell lines).

This is one part of the list. Single values are uncertain, as repeats are few or missing.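 The apoptosis fraction was the count of cleaved-PARP antibody-stained nuclei relative to all DNA-stained nuclei, imaged in 1,536-well plates. Screening doses were set so most cells survived, and baseline and induced cleaved-PARP levels vary greatly across cell lines.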

For this test, the system named is IPC-298. The test is described as follows: cleaved PARP positive nuclei fraction relative to DMSO control; melanoma cells; higher = more apoptosis. To be noted: library dose: low library concentration; 72 h.
As for `O=C(O)c1ccc(-c2c[nH]c3ncc(-c4ccccc4)cc23)cc1C1CCCC1` + Cc1cc(SCc2sc(-c3ccc(C(F)(F)F)c(F)c3)nc2C)ccc1OCC(=O)O [GW0742] (first compound 0.16 µM, partner dose 2 µM), the “cleaved PARP positive nuclei fraction” value came to 85%. The result for `NC(=O)Nc1cc(-c2cccc(F)c2)sc1C(=O)N[C@H]1CCCNC1` + O=C(Oc1ccc([N+](=O)[O-])cc1)N1CCC(C(O)(c2ccc3c(c2)OCO3)c2ccc3c(c2)OCO3)CC1 [JZL184] (first compound 0.02 µM, partner dose 1 µM) reads 101%; that for `O=C(O)C(=O)Nc1sc2c(c1C(=O)O)CCNC2` + O=C(Oc1ccc([N+](=O)[O-])cc1)N1CCC(C(O)(c2ccc3c(c2)OCO3)c2ccc3c(c2)OCO3)CC1 [JZL184] (first compound 1.66667 µM, partner dose 1 µM), 41.7%.

On to `COc1ccc(-c2ccc3c(N4CCOCC4)nc(N4C[C@@H](C)O[C@@H](C)C4)nc3n2)cc1CO` + Cc1cc(SCc2sc(-c3ccc(C(F)(F)F)c(F)c3)nc2C)ccc1OCC(=O)O [GW0742] (first compound 0.02 µM, partner dose 2 µM), for which the “cleaved PARP positive nuclei fraction” value stood at 103%. With `O=C(CCCCCCC(=O)Nc1ccccc1)NO` [vorinostat] + Cc1cc(SCc2sc(-c3ccc(C(F)(F)F)c(F)c3)nc2C)ccc1OCC(=O)O [GW0742] (first compound 0.08 µM, partner dose 2 µM), the “cleaved PARP positive nuclei fraction” value was 87.5%. For `COC(=O)c1sccc1S(=O)(=O)Nc1ccc(Nc2ccccc2)cc1OC` + O=C(Oc1ccc([N+](=O)[O-])cc1)N1CCC(C(O)(c2ccc3c(c2)OCO3)c2ccc3c(c2)OCO3)CC1 [JZL184] (first compound 1 µM, partner dose 1 µM) the value was 45.5%.
